# PubChem BioAssay AID1508587 – Peter MacCallum Cancer Centre, 2020
# Purpose: 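Follow-up of vemurafenib sensitisers scored by lactate made per cell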 (follow-up of hits)
# System: human WM266.4 melanoma cells with a BRAF V600 mutation
# Reagents: single siRNA against human genes, 25 nM
# Duration: 96 h
# Conditions: vemurafenib 300 nM (about IC25), given 48 h after transfection for 48 h
# Measurement: 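Medium lactate read by absorbance over DAPI-counted nuclei; ratio with versus without vemurafenib, set against non-targeting siRNA, averaged over 2 replicates; cell number also recorded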
# Direction: lactate per cell, drug vs no drug: higher = less drug-induced drop in lactate per cell; lactate per cell with vemurafenib: higher = more lactate per cell under drug; lactate per cell without drug: higher = more lactate per cell without drug; cell growth with vemurafenib and cell growth without drug: higher = more cell growth over 48 h
# Active means: 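a duplex is active when its lactate-per-cell ratio with versus without drug falls under 0.55, i.e. 2 SD below non-targeting; a gene is confirmed if 2 or more of 4 duplexes pass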
# The deposit covers about 1,600 reagents; below is a random part of them. Of all reagents, 623 (39%) were called active. 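Calls are for each duplex; lactate ratios contain extreme outliers.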 Reagents against one gene are numbered here.
The first 3 records, to show the layout:
gene knocked down,reagent no.,"lactate per cell, drug vs no drug",lactate per cell with vemurafenib,lactate per cell without drug,cell growth with vemurafenib,cell growth without drug,Call
DPP7,1,1.1,2.16,1.16,-0.11,0.22,inactive
DPP7,2,0.51,0.94,1.1,0.73,0.71,active
DPP7,3,0.64,2.47,2.26,0.2,0.21,inactive

Main list, from the first entry:
gene knocked down,reagent no.,"lactate per cell, drug vs no drug",lactate per cell with vemurafenib,lactate per cell without drug,cell growth with vemurafenib,cell growth without drug,Call
DPP7,1,1.1,2.16,1.16,-0.11,0.22,inactive
DPP7,2,0.51,0.94,1.1,0.73,0.71,active
DPP7,3,0.64,2.47,2.26,0.2,0.21,inactive
DPP7,4,0.63,2.68,2.5,0.39,0.23,inactive
RHNO1,1,0.7,1.4,1.36,0.25,0.33,inactive
RHNO1,2,0.95,1.4,1,0.69,1.02,inactive
RHNO1,3,0.05,0.07,1.2,-0.06,0.05,active
RHNO1,4,0.57,0.88,1.06,0.71,0.74,inactive
CERS4,1,0.53,1.9,2.5,0.38,0.16,active
CERS4,2,0.96,12.2,9.98,-0.18,-0.15,inactive
CERS4,3,0.55,0.82,1.07,0.52,0.36,inactive
CERS4,4,0.64,0.88,1,0.53,0.84,inactive
POMT2,1,0.64,1.94,1.96,0.16,0.12,inactive
POMT2,2,0.64,2.7,2.72,0.21,0.18,inactive
POMT2,3,0.55,1.58,1.87,0.08,0.16,inactive
POMT2,4,0.58,1.02,1.15,0.19,0.35,inactive
TRAPPC9,1,0.1,0.06,0.37,0.01,0.04,active
TRAPPC9,2,0.64,1.4,1.53,0.42,0.32,inactive
TRAPPC9,3,0.64,1.5,1.58,0.8,0.33,inactive
TRAPPC9,4,-0.14,-0.08,0.41,0.35,0.5,active
ACSF3,1,0.8,1.5,1.31,0.09,0.29,inactive
ACSF3,2,0.56,1.79,2.27,0.18,0.1,inactive
ACSF3,3,0.71,1.02,0.94,0.95,1.11,inactive
ACSF3,4,0.46,0.66,0.94,0.53,0.65,active
FRG1,1,1.16,1.97,1.23,-0.1,0.07,inactive
FRG1,2,0.55,1.48,1.93,0.43,0.33,inactive
FRG1,3,0.57,0.92,1.14,0.73,0.64,inactive
FRG1,4,0.75,1.68,1.66,0.47,0.36,inactive
CLCN7,1,0.8,2.96,2.23,0.02,0.05,inactive
CLCN7,2,0.6,0.53,0.54,0.27,0.54,inactive
CLCN7,3,0.6,2.36,2.41,0.14,0.11,inactive
CLCN7,4,0.7,2.25,1.98,0.09,0.11,inactive
TYK2,1,0.7,1.3,1.16,0.35,0.55,inactive
TYK2,2,0.6,1.38,1.46,0.05,0.1,inactive
TYK2,3,0.66,1.02,0.98,0.38,0.68,inactive
TYK2,4,0.44,0.58,0.83,0.6,0.79,active
CCDC121,1,0.52,1.31,1.59,0.2,0.22,active
CCDC121,2,0.4,0.8,1.26,0.66,0.44,active
CCDC121,3,0.88,1.9,1.37,0.02,0.16,inactive
CCDC121,4,0.55,1.14,1.36,0.12,0.15,inactive
NUP37,1,0.58,0.66,0.74,0.26,0.38,inactive
NUP37,2,0.64,1.04,1.04,0.56,0.73,inactive
NUP37,3,0.6,0.97,1.04,0.89,0.83,inactive
NUP37,4,0.6,0.86,0.93,1.16,1.13,inactive
POGLUT2,1,0.5,0.76,0.98,1.03,0.92,active
POGLUT2,2,0.68,1.06,1.02,0.48,0.54,inactive
POGLUT2,3,0.55,0.94,1.1,0.5,0.62,inactive
POGLUT2,4,0.72,1.86,1.67,0.15,0.29,inactive
GOLGA2,1,0.77,2.66,2.27,0.21,0.16,inactive
GOLGA2,2,0.37,0.3,0.66,-0.07,0.11,active
GOLGA2,3,0.72,2.93,2.67,-0.06,-0.02,inactive
GOLGA2,4,0.62,1.27,1.35,0.61,0.54,inactive
